Reference: patent US11897918B2, “Compositions and methods to increase production” (priority 2014, dated 2024)
For part of these data: For at least one compound, name, drawing or mass did not settle the structure. Some results were stated once for a whole list of compounds, not compound by compound.

Tests used:
[1] = test system: influenza subtype A virus H1N1; conditions: 1.0 μM; cited from earlier work
[2] = test system: influenza subtype A H1N1 and H3N2 strains in MDCK cells; assay type: cell-based; conditions: 1 μM sulphonamide or 0.05 μM pitavastatin

Question: With `CCC(C)(C)C(=O)O[C@H]1C[C@@H](C)C=C2C=C[C@H](C)[C@H](CC[C@@H]3C[C@@H](O)CC(=O)O3)[C@H]21` [Simvastatin] as the compound, how does the “increase of H1N1 viral titer” value [1] read?
Answer: Its value is 1.5-3 fold.

Question: With `Cc1cccc(S(=O)(=O)N2CCC[C@@H]2CCN2CCC(C)CC2)c1` [Compound E] as the compound, how does the “HA yield enhancement, influenza Subtype A strains” value [2] read?
Answer: The value was 2-3 fold.

Question: For `O=C(O)C[C@H](O)C[C@H](O)/C=C/c1c(C2CC2)nc2ccccc2c1-c1ccc(F)cc1` [Compound G, (3R, 5S, 6E)-7-[2-cyclopropyl-4-(4-fluorophenyl)-quinolin-3-yl)-3,5-dihydroxyhept-6-enoic acid], which “HA yield enhancement, influenza Subtype A strains” value [2] is on record?
Answer: The value was 2-3 fold.
